± gives the standard deviation of the averaged measurements. Some of the results follow. Single values are uncertain, as repeats are few or missing.
The molecules below were run on RAW 264.7 macrophages infected with S. aureus JE2-lux (assay: host macrophage viability (CellTiter-Fluor) relative to DMSO vehicle; higher = more viable host cells). Conditions: 10 µM; treatment time 4 h; gentamicin 50 µg/ml.

| Structure (SMILES) | host macrophage viability [%] |
| --- | --- |
| COc1cc2c(cc1OC)C(COc1ccc([N+](=O)[O-])cc1)N(C(=S)NC(C)(C)C)CC2 (configuration not stated) | 114 |
| CCN(CCNC(=O)c1ccc2nc(N3CCN(c4ncccn4)CC3)ccc2n1)c1cccc(C)c1 | 113 |
| O=C(NC1CC1)c1ccc(S(=O)(=O)N2CCC(NC(=O)c3cccc(F)c3)CC2)cc1 | 119 |
| CC(C)c1cc(C(=O)NC(c2ccncc2)c2ccc(Cl)cc2)n(C)n1 (configuration not stated) | 104 |
| Cc1cc2nc(NC(=O)Nc3cccc(F)c3)sc2cc1C | 91.2 |
| CC1CCCN(c2ccc(NS(=O)(=O)c3ccc4[nH]c(=O)[nH]c(=O)c4c3)cc2)C1 (configuration not stated) | 116 |
| CC1=NNC(=O)/C1=N\Nc1ccc(S(=O)(=O)N2CCOCC2)cc1 | 84.7 |
| O=C(CSc1ncnc2c1oc1ccccc12)Nc1ccc(Br)cc1 | 124 |
| CC1Cc2ccccc2N1C(=O)CCn1c(=O)oc2ccccc21 (configuration not stated) | 111 ± 4.6 |
| COc1ccc(C(=O)CSc2nc3c(C)cc(C)cc3cc2C#N)cc1OC | 101 |
| Cc1ccc(C)c(NC(=O)c2c(-c3ccccc3Cl)noc2C)c1 | 127 |
| COC(=O)c1sccc1NC(=O)CSc1nccnc1N1CCN(c2cccc(C)c2C)CC1 | 104 |
| COc1ccccc1-n1c(CNC(=O)c2ccccc2F)n[nH]c1=S | 123 |
| CCCCc1ccc(NC(=O)CSC2=NS(=O)(=O)c3cc(F)ccc3N2)cc1 | 128 |
| Cc1[nH]c2c(C(=O)Nc3ccc(Cl)cc3)cnn2c(=O)c1C | 129 |
| Cc1cccn2c(=O)c(C=O)c(Nc3ccc([N+](=O)[O-])cc3)nc12 | 97.3 ± 2.8 |
| Cc1ccc(N2C(=O)NC3CC2(C)Oc2ccccc23)cc1Cl (configuration not stated) | 125 |
| Cc1nnc(SCC(=O)NCCc2ccccc2)[nH]c1=O | 117 |
| COc1ccc(C)c2sc(NC(=O)C3=COCCO3)nc12 | 127 |
| Cc1cc2c(cc1NC(=O)C1OCOc3ccccc31)OCCO2 (configuration not stated) | 103 |
| CCOC(=O)c1c(NC(=O)c2cc(-c3cccs3)on2)sc2c1CCC2 | 136 |
| CCN1CCN(c2nc(NCCCN3CCOCC3)nc(N)c2[N+](=O)[O-])CC1 | 99.6 |

| Structure (SMILES) | host macrophage viability [%] |
| --- | --- |
| Cc1cc2c(cc1C)NC(CC(=O)NC1CCCCC1)C(=O)N2 (configuration not stated) | 119 |
| Cc1nn(-c2cccc(Cl)c2)c2nc(-c3ccccn3)cc(C(F)(F)F)c12 | 126 |
| CC1CCCCN1c1nc2c(c(=O)[nH]c(=O)n2C)n1Cc1ccccc1 (configuration not stated) | 107 |
| O=C(Nc1ccccc1)N1CCC(n2cnc3cc(F)ccc32)CC1 | 124 |
| Cc1cccc(NC(=O)c2cccc3c2-c2ccccc2C3=O)n1 | 108 |
| O=C(CSc1nc2ccccc2n1Cc1ccccc1F)Nc1ccc2c(c1)OCCO2 | 108 |
| CC1(C)COc2ccc(NC(=O)C3CCCC3)cc2NC1=O | 107 |
| COC(=O)c1sc(-c2ccccc2)cc1NC(=O)c1cc(OC)cc(OC)c1 | 110 ± 16 |
| NC(=O)c1cc2cc(Cl)ccc2o/c1=N/NC(=O)c1cccc(F)c1 | 109 |
| CCCc1nnc(SCC(=O)Nc2cccc(C(F)(F)F)c2)n1-n1cccc1 | 120 |
| CCOc1ccccc1CNC(=O)C1CCCN(c2nc(C)nc3onc(C)c23)C1 (configuration not stated) | 127 |
| CCOc1cccc2c1OC(c1cccnc1)N1N=C(c3cccs3)CC21 (configuration not stated) | 119 |
| O=C(c1ccc2c(c1)OCCO2)C1CCN(C(=S)Nc2ccc(F)cc2)CC1 | 102 |
| COc1ccc(NC(C)=O)cc1NC(=O)c1cn(C)nc1OC | 123 |
| Cc1cccc(-c2ccc(C(=O)NCC(C)C)cn2)c1 | 88.9 |
| COC(=O)C1=C(NC(=O)c2cc3ccccc3oc2=O)CCS1 | 110 |
| Cc1cc(NC(=O)CSc2nc(=O)cc(N)n2-c2ccc(F)cc2)no1 | 113 |
| CCN1CCCC1CNC(=O)C(=O)c1cn(CC(=O)N2CCCCCC2)c2ccccc12 (configuration not stated) | 97.2 |
| COc1ccc2nc(NC(=O)CSc3ncccc3C(=O)O)sc2c1 | 108 |
| CCc1cccc2c(O)c(C(=O)NCc3cccnc3)cnc12 | 122 |
| Cc1nc2nc(Cc3cccc(F)c3)nn2c(O)c1C | 119 |
| CC(C)c1csc(-c2csc(S(=O)(=O)Nc3ccc(Br)cc3F)c2)n1 | 129 |

| Structure (SMILES) | host macrophage viability [%] |
| --- | --- |
| COc1ccc2c(Cl)c(C(=O)NCCC3=CCCCC3)sc2c1 | 112 |
| CCn1c(SCC(=O)Nc2ccccc2C(=O)OC)nc2cccnc21 | 105 |
| Cc1ccc(S(=O)(=O)Nc2cc(C(=O)N(C)Cc3ccccc3)cnc2N2CCNCC2)cc1C | 136 |
| CC(NC(=O)c1ccccc1)c1nc(-c2ccc3c(c2)nnn3C)no1 (configuration not stated) | 109 |
| CC(=O)NC(=O)c1cc2c(ccc3ccccc32)o/c1=N\c1ccc(F)cc1F | 122 |
| Cc1oc(-c2ccccc2Cl)nc1CS(=O)(=O)CC(=O)NCc1ccc(F)cc1 | 84.6 |
| CCCCN1CCn2c(nc3cc(NC(=O)NC4CCCCC4)ccc32)C1 | 118 |
| Cc1ccc(S(=O)(=O)Nc2ccc3nncn3n2)cc1 | 121 |
| O=C(C1=C(O)C(=O)N(Cc2cccnc2)C1c1cccc(Br)c1)c1cccs1 (configuration not stated) | 90.4 |
| COc1ccc(C(=O)NC2CCN(C(=O)NCc3ccccc3)CC2)cc1 | 99 |
| CCCCSc1nc2c(cnn2-c2ccc(C)c(C)c2)c(=O)[nH]1 | 106 |
| O=C(CN1C(=O)c2ccccc2S1(=O)=O)NCc1ccc2c(c1)OCO2 | 115 |
| Cc1nc(OCC(=O)NC(C)(C)C)c2c(-c3cccc(F)c3)noc2n1 | 128 |
| Cc1cc(NC2CCCC2)n2ncc(-c3ccc(F)cc3)c2n1 | 103 |
| COC(=O)c1sc(-c2ccccc2)cc1NC(=O)c1ccc([N+](=O)[O-])s1 | 107 ± 8.7 |
| Fc1ccc(-c2csc3ncnc(Sc4nnnn4-c4ccccc4)c23)cc1 | 92.9 |
| Cc1ccccc1-n1cc(-c2ccccc2)c2c(NCCCN3CCOCC3)ncnc21 | 108 |
| COc1ccc(C2(NC(=O)C3OCOc4ccccc43)CCCCC2)cc1 (configuration not stated) | 98.9 |
| COc1cccc(CNC(=O)CSc2nnc(-c3cc4ccccc4[nH]3)o2)c1 | 110 |
| CCN1CCN(CC(=O)Nc2ccc(Cl)c(Cl)c2)C(=O)C1=O | 105 |
| O=S(=O)(Nc1ccc2cn[nH]c2c1)c1ccc(Br)cc1 | 129 |
| C#CCn1/c(=N/C(=O)c2cccc([N+](=O)[O-])c2)sc2cccc(F)c21 | 118 |

| Structure (SMILES) | host macrophage viability [%] |
| --- | --- |
| COc1cccc2c(=O)cc(C)n(CC(=O)Nc3ccc(Br)cc3)c12 | 121 |
| O=C(CSc1ccc(-c2ccc(Cl)cc2)nn1)NCCc1c[nH]c2ccccc12 | 110 |
| CCOc1ccc(NC(=O)COc2cccc3c2CCN(C)C3=O)cc1 | 124 |
| COc1cc(/C=N/NC(=O)CN2CCOCC2)ccc1O | 99.3 ± 4.3 |
| O=C1Cc2cc(NC(=O)c3cc4ccccc4oc3=O)ccc2N1 | 115 |
| CC(C)N1CCC(CNC(=O)c2ccc3c(c2)NC(=O)C(C)(C)O3)CC1 | 119 |
| Cc1nc2nc(Cc3cccc(F)c3)nn2c(N2CCN(c3ccccn3)CC2)c1C | 119 |
| O=C(Cn1cnc2c(nnn2Cc2ccc(F)cc2)c1=O)Nc1ccccc1C(F)(F)F | 104 ± 8 |
| COc1ccc(-c2n[nH]c3nc(-c4ccc(Cl)cc4)cc(C(=O)NCc4ccc(C)cc4)c23)cc1 | 103 |
| Cc1nn(Cc2c(F)cccc2Cl)c(=O)c2noc(C)c12 | 94.9 |
| C=CCn1c(SCC(=O)Nc2sc3c(c2C(=O)OCC)CCC3)nc2ccccc2c1=O | 118 ± 7.6 |
| CCOC(=O)c1c(C)oc2ncn(Cc3ccccc3)c(=O)c12 | 108 |
| COc1ccccc1N1C(=O)N(c2ccccc2Cl)C2CS(=O)(=O)CC21 (configuration not stated) | 126 |
| O=C1NC2=C(C(=O)N(CCO)C2)C(c2ccc(OCc3ccccc3)cc2)N1 (configuration not stated) | 108 |
| CC(=O)C(C)n1c(=O)c2c(nc3n(-c4ccc(F)cc4)c(-c4ccccc4)cn23)n(C)c1=O (configuration not stated) | 113 |
| Cc1cc(-c2csc(S(=O)(=O)Nc3cccc(Br)c3)c2)on1 | 119 |
| CC12CC(NC(=O)N1c1cccc(C(=O)O)c1)c1cc(Br)ccc1O2 (configuration not stated) | 117 |
| Cc1c(C(=O)Nc2c(C(=O)Nc3ccc4c(c3)OCCO4)oc3ccccc23)cccc1[N+](=O)[O-] | 111 |
| O=C(O)c1ccc(C(=O)NCC2CCCO2)c(C(=O)O)c1 (configuration not stated) | 123 |
| O=C(Nc1cc(-c2cccs2)nnc1O)C1CCC1 | 118 |
| CCNC(=O)c1n[nH]c2c1CCc1cc(OC)ccc1-2 | 125 |
| Cc1ccc(N2CC(C(=O)N3CCN(c4ncnc5c4nnn5-c4ccc(C)cc4)CC3)CC2=O)cc1 (configuration not stated) | 122 |

Shown with bars between the fields: 2 of the compounds above
Structure (SMILES) | host macrophage viability [%]
CCOc1ccc(NC(=O)COc2cccc3c2CCN(C)C3=O)cc1 | 124
Cc1ccc(N2CC(C(=O)N3CCN(c4ncnc5c4nnn5-c4ccc(C)cc4)CC3)CC2=O)cc1 (configuration not stated) | 122

Further entries follow:

| Structure (SMILES) | host macrophage viability [%] |
| --- | --- |
| O=C(O)CCn1nc(Nc2ccccc2)n(-c2ccccc2)c1=S | 105 ± 1.1 |
| COCCn1c(SCC(=O)N2CCc3ccccc32)nc2cccnc21 | 109 |
| COc1ccc2nc(NC(=O)CSc3nnc4nc(C)cc(C)n34)sc2c1 | 109 |
| CSc1ccc(NC(=O)NCCc2ccncc2)cc1 | 107 |
| COc1cccc(-c2cc3nc(C)c(Cl)c(O)n3n2)c1 | 121 |
| COCCCNc1c(-c2ccc(C)cc2)nc2sc3cc(C)ccc3n12 | 80.2 |
| Cc1nc(SCC(=O)NCc2ccco2)[nH]c(=O)c1C | 124 |
| O=C(NC(=O)c1ccc(F)cc1)Nc1ccncc1 | 145 |
| CCn1cc(SCC(=O)Nc2ccc(OC)cc2)c2ccccc21 | 127 |
| COc1ccc(CN2C(=O)c3cccc4cccc(c34)C2=O)cc1 | 125 |
| O=C(Nc1ccc(F)cc1F)c1cccnc1-c1ccsc1 | 106 |
| CCOC(=O)c1ccc(/N=c2\oc3ccc(OC)cc3cc2C(N)=O)cc1 | 117 ± 6.4 |
| COc1ccccc1CCNC(=O)C(=O)NCC1OCCN1S(=O)(=O)c1ccc([N+](=O)[O-])cc1 (configuration not stated) | 121 |
| Cc1ccc2nnc(-c3ccccc3)c(C(=O)Nc3ccc(F)cc3)c2c1 | 91.4 |
| O=C(CSc1ncnc2c1sc1nc3ccccc3cc12)c1ccc2c(c1)OCCO2 | 121 |
| Cc1cc2c(=O)n(Cc3ccco3)c(SCC(=O)Nc3ccc4c(c3)OCO4)nc2s1 | 126 |
| CN(C)CCCNc1ncnc2sc3c(c12)CCCC3 | 112 |
| CC1CN(C(=O)c2ncoc2-c2ccc(F)cc2)CC(C)O1 (configuration not stated) | 87.8 |
| CSc1ncc(C(=O)Nc2nc(-c3c[nH]c4cc(C)ccc34)cs2)cn1 | 112 |
